This passage reports binding results from article doi:10.1101/2024.11.15.623304.

Protein sequences, listed by entry. Tags and fused reporters are not part of them. Residues count along the entry.
UniProt P80188, residues 21-198: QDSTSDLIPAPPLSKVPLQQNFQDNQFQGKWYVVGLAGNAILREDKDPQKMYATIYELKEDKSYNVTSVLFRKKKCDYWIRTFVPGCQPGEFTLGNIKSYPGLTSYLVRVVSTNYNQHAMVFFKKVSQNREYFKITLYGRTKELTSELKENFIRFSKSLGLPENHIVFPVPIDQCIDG

What all share (assay): co-IP
The target of one experiment is LCN2-Flag (UniProt P80188).
A further experiment has as its target EGFR-Flag (UniProt P00533).
The target of experiment [1] is endogenous LCN2 (human (endogenous in LOVO)) (UniProt P80188).

Results are given in words; binding and its absence hold for the method and conditions named. Binding seen in cells or lysates may run through a third protein. Some results given as binding are weak or reduced against the parent protein; the word gives no strength.

For the substance “EGFR-Flag (from UniProt P00533 25-1210) (receptor)”, the binding entry with LCN2-Flag was “binds”. In the case of LCN2-Flag (from UniProt P80188 21-198), the binding result with EGFR-Flag is listed as “binds”. Take “endogenous EGFR (from UniProt P00533 25-1210) (receptor)”: in experiment [1], the binding entry was “binds”.
